Results published in the supplement of paper PMC12282887.

Tested on: Escherichia coli BW25113
Test: growth (OD600 area under curve, 8 h) (OD600 x h); higher = more growth
Method: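 E. coli BW25113 reporter strains (wild type, ΔmarA, ΔsoxS, Δrob, each carrying one of 8 lux reporter plasmids) were grown in 40 µl LB in 384-well plates at 37°C, 800 rpm, with each compound at 4 two-fold concentrations, in biological duplicates. Growth is the baseline-corrected OD600 area under the curve over 8 h (0-8 h WT, 1-9 h deletion strains).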

CC[C@H]1OC(=O)[C@H](C)[C@@H](O[C@H]2C[C@@](C)(OC)[C@@H](O)[C@H](C)O2)[C@H](C)[C@@H](O[C@@H]2O[C@H](C)C[C@H](N(C)C)[C@H]2O)[C@](C)(O)C[C@@H](C)CN(C)[C@H](C)[C@@H](O)[C@]1(C)O [Azithromycin]
growth
Settings	reporter plasmid: EVC	reporter plasmid: acrABp	reporter plasmid: marRABp	reporter plasmid: micFp	reporter plasmid: ompFp	reporter plasmid: robp	reporter plasmid: soxSp	reporter plasmid: tolCp
0.28 µg/ml, genetic background: wild type	3.126 ± 0.013	3.04 ± 0.45	3.05 ± 0.1	2.77 ± 0.055	2.98 ± 0.067	3.11 ± 0.18	2.862 ± 0.018	2.7 ± 0.17
0.28 µg/ml, genetic background: ΔmarA	2.46 ± 0.2	3.46 ± 0.26	3.26 ± 0.21	3.08 ± 0.45	3.27 ± 0.45	3.94 ± 0.32	3.24 ± 0.17	2.61 ± 0.21
0.28 µg/ml, genetic background: Δrob	2.88 ± 0.3	3.133 ± 0.018	3.32 ± 0.34	2.46 ± 0.12	2.47 ± 0.059	2.81 ± 0.37	2.85 ± 0.044	2.838 ± 0.013
0.28 µg/ml, genetic background: ΔsoxS	2.98 ± 0.35	3.24 ± 0.59	3.21 ± 0.81	2.7 ± 0.14	3.1 ± 0.26	3.08 ± 0.2	2.9 ± 0.52	2.91 ± 0.33
0.56 µg/ml, genetic background: wild type	2.42 ± 0.058	2.54 ± 0.44	2.49 ± 0.43	2.04 ± 0.013	2.12 ± 0.026	2.36 ± 0.13	2.41 ± 0.073	2.13 ± 0.077
0.56 µg/ml, genetic background: ΔmarA	1.87 ± 0.29	2.64 ± 0.65	2.39 ± 0.13	2.09 ± 0.23	2.37 ± 0.06	3.08 ± 0.45	2.82 ± 0.59	1.77 ± 0.11
0.56 µg/ml, genetic background: Δrob	2.01 ± 0.17	2.13 ± 0.3	2.35 ± 0.68	1.47 ± 0.052	1.42 ± 0.052	1.81 ± 0.65	2.38 ± 0.037	1.9 ± 0.041
0.56 µg/ml, genetic background: ΔsoxS	2.05 ± 0.24	2.1 ± 0.47	2.08 ± 0.92	1.91 ± 0.087	2.31 ± 0.29	2.03 ± 0.23	2.08 ± 0.14	1.81 ± 0.15
1.1 µg/ml, genetic background: wild type	1.83 ± 0.27	1.69 ± 0.75	1.77 ± 0.24	1.27 ± 0.082	1.43 ± 0.15	1.56 ± 0.19	1.85 ± 0.076	1.38 ± 0.22
1.1 µg/ml, genetic background: ΔmarA	0.951 ± 0.078	1.05 ± 0.81	0.933 ± 0.52	1.18 ± 0.096	0.983 ± 0.013	1.9 ± 0.27	2.37 ± 0.34	1.01 ± 0.3
1.1 µg/ml, genetic background: Δrob	1.35 ± 0.41	1.48 ± 0.58	1.46 ± 0.32	0.963 ± 0.32	0.647 ± 0.37	0.873 ± 0.43	1.75 ± 0.29	1.32 ± 0.094
1.1 µg/ml, genetic background: ΔsoxS	1.47 ± 0.15	1.48 ± 0.56	1.49 ± 1	1.21 ± 0.25	1.45 ± 0.21	1.46 ± 0.25	1.33 ± 0.27	1.14 ± 0.26
2.2 µg/ml, genetic background: wild type	0.796 ± 0.11	0.336 ± 0.024	0.203 ± 0.1	0.426 ± 0.21	0.139 ± 0.029	0.358 ± 0.25	0.71 ± 0.34	0.556 ± 0.25
2.2 µg/ml, genetic background: ΔmarA	0.182 ± 0.053	0.0851 ± 0.049	0.034 ± 0.0037	0.14 ± 0.016	0.0272 ± 0.0047	0.259 ± 0.24	0.454 ± 0.089	0.134 ± 0.038
2.2 µg/ml, genetic background: Δrob	0.262 ± 0.11	0.158 ± 0.054	0.0339 ± 0.047	0.0856 ± 0.061	0.0557 ± 0.043	0.0746 ± 0.04	0.339 ± 0.21	0.321 ± 0.071
2.2 µg/ml, genetic background: ΔsoxS	0.2233 ± 0.0022	0.191 ± 0.032	0.0616 ± 0.026	0.0889 ± 0.0096	0.115 ± 0.045	0.0341 ± 0.051	0.101 ± 0.0025	0.251 ± 0.11

CO[C@@H]1[C@@H](OC(N)=O)[C@@H](O)[C@H](Oc2ccc3c(O)c(NC(=O)c4ccc(O)c(CC=C(C)C)c4)c(=O)oc3c2C)OC1(C)C [Novobiocin]
growth
Settings	reporter plasmid: EVC	reporter plasmid: acrABp	reporter plasmid: marRABp	reporter plasmid: micFp	reporter plasmid: ompFp	reporter plasmid: robp	reporter plasmid: soxSp	reporter plasmid: tolCp
2.4 µg/ml, genetic background: wild type	3.2 ± 0.47	3.11 ± 0.26	3.14 ± 0.2	3.42 ± 0.089	3.17 ± 0.25	3.2 ± 0.054	3.37 ± 0.16	3.32 ± 0.19
2.4 µg/ml, genetic background: ΔmarA	3.31 ± 0.45	3.96 ± 0.053	3.48 ± 0.18	3.38 ± 0.81	3.43 ± 0.72	3.63 ± 0.22	3.05 ± 0.55	3.02 ± 0.49
2.4 µg/ml, genetic background: Δrob	3.31 ± 0.61	2.8 ± 0.082	3.43 ± 0.39	3.26 ± 0.48	2.61 ± 0.55	2.77 ± 0.21	3.205 ± 0.019	3.284 ± 0.019
2.4 µg/ml, genetic background: ΔsoxS	3.45 ± 0.096	3.39 ± 0.13	3.14 ± 0.6	3.14 ± 0.11	3.16 ± 0.097	3.25 ± 0.36	3.266 ± 0.021	3.37 ± 0.34
4.8 µg/ml, genetic background: wild type	3.35 ± 0.47	3.42 ± 0.22	3.2 ± 0.23	3.32 ± 0.12	3.12 ± 0.13	3.13 ± 0.053	3.26 ± 0.23	3.43 ± 0.13
4.8 µg/ml, genetic background: ΔmarA	3.1 ± 0.47	3.7 ± 0.15	3.28 ± 0.16	3.54 ± 0.94	3.25 ± 1.1	3.27 ± 0.36	3.23 ± 0.54	2.9 ± 0.36
4.8 µg/ml, genetic background: Δrob	3.34 ± 0.6	2.52 ± 0.17	3.28 ± 0.59	3.33 ± 0.25	2.46 ± 0.65	2.58 ± 0.15	3.35 ± 0.18	3.341 ± 0.024
4.8 µg/ml, genetic background: ΔsoxS	3.58 ± 0.046	3.39 ± 0.3	3.01 ± 0.69	3.21 ± 0.095	3.11 ± 0.36	2.98 ± 0.53	3.19 ± 0.043	3.58 ± 0.17
9.5 µg/ml, genetic background: wild type	3.47 ± 0.13	2.94 ± 0.24	3.42 ± 0.058	3.29 ± 0.12	3.16 ± 0.39	3.35 ± 0.26	3.35 ± 0.34	3.43 ± 0.1
9.5 µg/ml, genetic background: ΔmarA	3.35 ± 0.64	3.95 ± 0.067	3.46 ± 0.14	3.49 ± 0.89	3.54 ± 0.8	3.81 ± 0.12	3.11 ± 0.72	3.03 ± 0.34
9.5 µg/ml, genetic background: Δrob	3.26 ± 0.69	2.96 ± 0.32	3.42 ± 0.5	3.47 ± 0.29	2.78 ± 0.57	2.86 ± 0.067	3.26 ± 0.32	3.47 ± 0.037
9.5 µg/ml, genetic background: ΔsoxS	3.54 ± 0.11	3.57 ± 0.1	3.32 ± 0.88	3.22 ± 0.36	2.94 ± 0.64	3.45 ± 0.54	3.27 ± 0.1	3.47 ± 0.4
19 µg/ml, genetic background: wild type	3.14 ± 0.17	2.19 ± 0.24	2.63 ± 0.22	2.72 ± 0.045	2.62 ± 0.031	2.46 ± 0.22	3.08 ± 0.37	2.98 ± 0.11
19 µg/ml, genetic background: ΔmarA	2.13 ± 0.046	0.45 ± 0.55	0.991 ± 0.43	2.49 ± 1.3	1.32 ± 0.59	2.08 ± 1.8	3.26 ± 0.48	1.87 ± 0.34
19 µg/ml, genetic background: Δrob	2.65 ± 0.57	0.627 ± 0.23	2.23 ± 0.81	2.31 ± 0.24	1.08 ± 0.47	0.816 ± 0.15	3.05 ± 0.32	2.92 ± 0.083
19 µg/ml, genetic background: ΔsoxS	3.18 ± 0.15	1.72 ± 0.86	2.11 ± 1	2.56 ± 0.1	1.39 ± 0.078	1.36 ± 0.29	2.84 ± 0.46	3.21 ± 0.1

COc1cccc2c1C(=O)c1c(O)c3c(c(O)c1C2=O)C[C@@](O)(C(=O)CO)C[C@@H]3O[C@H]1C[C@H](N)[C@H](O)[C@H](C)O1 [Doxorubicin]
growth
Settings	reporter plasmid: EVC	reporter plasmid: acrABp	reporter plasmid: marRABp	reporter plasmid: micFp	reporter plasmid: ompFp	reporter plasmid: robp	reporter plasmid: soxSp	reporter plasmid: tolCp
0.29 µg/ml, genetic background: wild type	2.94 ± 0.2	2.6391 ± 0.00052	3.24 ± 0.18	3.05 ± 0.39	2.74 ± 0.088	2.93 ± 0.2	2.74 ± 0.12	2.96 ± 0.27
0.29 µg/ml, genetic background: ΔmarA	3.43 ± 0.66	4.3 ± 0.7	3.78 ± 0.25	3.29 ± 0.64	3.4 ± 0.35	3.78 ± 0.55	3.07 ± 0.41	2.96 ± 0.41
0.29 µg/ml, genetic background: Δrob	2.59 ± 0.77	3.07 ± 0.094	3.49 ± 0.25	3.15 ± 0.52	2.53 ± 0.31	2.65 ± 0.1	2.92 ± 0.39	3 ± 0.39
0.29 µg/ml, genetic background: ΔsoxS	2.79 ± 0.14	2.99 ± 0.73	3.01 ± 0.46	2.75 ± 0.06	2.7723 ± 0.00043	2.94 ± 0.036	2.97 ± 0.59	2.8 ± 0.16
0.58 µg/ml, genetic background: wild type	2.64 ± 0.059	2.7077 ± 0.00032	3.25 ± 0.24	2.92 ± 0.44	2.69 ± 0.23	2.83 ± 0.2	2.83 ± 0.16	2.89 ± 0.15
0.58 µg/ml, genetic background: ΔmarA	3.33 ± 0.59	4.51 ± 0.81	3.78 ± 0.47	3.28 ± 0.69	3.33 ± 0.61	3.91 ± 0.65	3.01 ± 0.46	3 ± 0.43
0.58 µg/ml, genetic background: Δrob	2.41 ± 0.62	2.854 ± 0.026	3.33 ± 0.31	2.88 ± 0.64	2.53 ± 0.21	2.54 ± 0.22	2.72 ± 0.72	2.86 ± 0.62
0.58 µg/ml, genetic background: ΔsoxS	2.6 ± 0.25	2.82 ± 0.57	2.97 ± 0.58	2.48 ± 0.27	2.69 ± 0.16	2.74 ± 0.1	2.7 ± 0.34	2.67 ± 0.1
1.2 µg/ml, genetic background: wild type	2.99 ± 0.15	2.72 ± 0.33	3.36 ± 0.11	3.02 ± 0.4	3 ± 0.18	3.17 ± 0.28	2.68 ± 0.19	3.026 ± 0.023
1.2 µg/ml, genetic background: ΔmarA	3.06 ± 0.42	4.32 ± 0.57	3.74 ± 0.28	3.32 ± 0.71	3.42 ± 0.88	3.64 ± 0.6	3 ± 0.68	3.01 ± 0.27
1.2 µg/ml, genetic background: Δrob	2.54 ± 0.67	3.32 ± 0.23	3.43 ± 0.17	3.29 ± 0.36	2.82 ± 0.39	2.75 ± 0.23	3.06 ± 0.57	3.2 ± 0.31
1.2 µg/ml, genetic background: ΔsoxS	2.88 ± 0.36	3.12 ± 0.48	3.22 ± 0.54	2.57 ± 0.25	3.15 ± 0.33	3.186 ± 0.015	3.16 ± 0.49	2.81 ± 0.29
2.3 µg/ml, genetic background: wild type	2.76 ± 0.1	2.41 ± 0.41	3.19 ± 0.051	2.79 ± 0.4	2.72 ± 0.097	3.01 ± 0.12	2.78 ± 0.13	3.007 ± 0.015
2.3 µg/ml, genetic background: ΔmarA	3.06 ± 0.43	4.12 ± 0.53	3.37 ± 0.42	3.36 ± 0.62	3.07 ± 0.59	3.48 ± 0.42	2.9 ± 0.52	2.94 ± 0.41
2.3 µg/ml, genetic background: Δrob	2.47 ± 0.87	2.85 ± 0.089	3.21 ± 0.18	2.98 ± 0.61	2.31 ± 0.69	2.32 ± 0.19	2.77 ± 0.67	2.92 ± 0.35
2.3 µg/ml, genetic background: ΔsoxS	2.74 ± 0.18	2.7 ± 0.51	3 ± 0.83	2.259 ± 0.0025	2.45 ± 0.39	2.79 ± 0.038	2.78 ± 0.74	2.67 ± 0.0043

± gives the standard deviation of the averaged measurements. Values are raw readings; no control value is given beside them.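 Maximum concentrations were near the MIC for antimicrobials, 500 µM for most other compounds, and as high as 1 mM for known inducer-like compounds. Deletion strains began with a tenfold smaller inoculum, and wells with growth under 10% of the overall median counted as non-growing.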
